This note sets out measurements from PubChem BioAssay AID485318 (Broad Institute, 2010).

The chains behind the UniProt entries cited, without tags or fusion partners. Where a name states a change or a piece, a line headed by the entry shows the natural chain unless it says otherwise.
UniProt O15379: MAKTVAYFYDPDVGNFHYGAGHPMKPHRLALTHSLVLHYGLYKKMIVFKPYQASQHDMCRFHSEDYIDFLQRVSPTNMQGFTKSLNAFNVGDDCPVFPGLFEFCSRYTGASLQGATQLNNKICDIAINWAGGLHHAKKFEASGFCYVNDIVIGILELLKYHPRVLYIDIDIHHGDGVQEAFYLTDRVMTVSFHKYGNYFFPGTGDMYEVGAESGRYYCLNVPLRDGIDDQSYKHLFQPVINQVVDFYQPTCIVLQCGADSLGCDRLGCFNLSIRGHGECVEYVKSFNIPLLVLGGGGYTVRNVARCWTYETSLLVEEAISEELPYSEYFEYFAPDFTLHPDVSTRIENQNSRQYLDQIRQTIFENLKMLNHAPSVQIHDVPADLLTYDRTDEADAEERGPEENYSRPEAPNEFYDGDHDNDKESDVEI

Hit rate of the full screen: of about 1,400 compounds, fewer than 10 were called active.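 The calls were made as follows: active = fluorescence-lowering compounds whose fitted half-maximal concentration is at or below ten times the highest valid dose tested; inconclusive = flat curve at 30 to 70% inhibition, or poor fit; inactive = the rest.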 The list shows a part of the results.

The assay addresses Histone deacetylase 3 (Homo sapiens) (UniProt O15379). As to the kind of experiment: inhibition of human HDAC3 enzymatic activity – biochemical, fluorescence, cherry-picked samples, counter-screen for JMJD2C/GASC1 demethylase inhibitor project, dose response (AID 485318).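 Also: enzyme preincubated with compound before substrate and trypsin were added; 0% = neutral control wells and -100% = SAHA positive control wells.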 Particulars: recombinant HDAC3, fluorogenic peptide/trypsin coupled; at 12 µM (top of the series). On the technique in general: The purpose of a counterscreen is to sort out artefacts and off-target activity.
With `COc1cccc(C(c2c(C)[nH]n(-c3ccccc3)c2=O)c2c(C)[nH]n(-c3ccccc3)c2=O)c1O`, the activity change, negative = inhibition was inactive: 0.24%. As for `C[C@H](CO)N1C[C@H](C)[C@@H](CN(C)Cc2ccc(Cl)c(Cl)c2)Oc2c(NS(=O)(=O)c3cn(C)cn3)cccc2C1=O`, the activity change, negative = inhibition was inactive: -0.162%. `O=C(COC(=O)c1cccc(S(=O)(=O)NCc2ccccc2)c1)Nc1ccccc1OC(F)F`: the activity change, negative = inhibition is inactive: -0.814%. As for `COc1ccccc1/C=C1/SC(=S)N(C(C)C(=O)NC2C=CS(=O)(=O)C2)C1=O` (configuration not stated), the figure is inactive: 0.888%; as for `CCN(CC)S(=O)(=O)c1ccc(N2CCOCC2)c(NC(=O)c2ccc3c(c2)OCCO3)c1`, inactive: -0.353%.

Consider `CCNC(=O)C/C(C)=N/NC(=O)C12CC3CC(CC(C3)C1)C2`, for which the activity change, negative = inhibition was inactive: -0.0941%. The figure for `COC(=O)[C@]1(Cc2ccccc2)N[C@H](CN(C)C(=O)Nc2ccccc2)[C@@H]2C(=O)N(C)C(=O)[C@@H]21` is inactive: 0.446%; for `O=C(OCc1nnc(-c2ccccc2)o1)c1cc(S(=O)(=O)N2CCOCC2)c(Cl)cc1Cl` it is inactive: -0.233%; for `CN1C(=O)Cc2cc(S(=O)(=O)NCCc3ccc(Cl)cc3)ccc21` it is inactive: -0.189%. For the compound `COc1cc(NS(=O)(=O)c2ccc(NC(=O)c3ccc(C)o3)cc2)nc(OC)n1`, the activity change, negative = inhibition is inactive: 0.178%. Consider `Cc1c(C(=O)Nc2ccc3c(c2)OCO3)sc2ncn(CC(=O)N3CC(C)CC(C)C3)c(=O)c12` (configuration not stated), for which the activity change, negative = inhibition was inactive: -0.0617%. For `COc1ccc(NC(=O)Nc2cccc3c2O[C@H](CN(C)C(=O)NC(C)C)[C@@H](C)CN([C@H](C)CO)C3=O)cc1`, the activity change, negative = inhibition is inactive: -0.142%. Consider `CCn1c(SCC(=O)N2CCc3ccccc32)nnc1-c1ccco1`, for which the activity change, negative = inhibition is inactive: 0.152%. The figure for `CCOC(=O)c1oc2ccccc2c1COC(=O)C(C)NC(=O)c1ccco1` (configuration not stated) is inactive: 0.721%. Turning to `CC1=NN(c2nc(-c3ccc(C#N)cc3)cs2)C(=O)C1`, the activity change, negative = inhibition is inactive: 0.637%. Take `Cc1cccc(N2CC(C(=O)Nc3nnc(SCC(=O)Nc4nccs4)s3)CC2=O)c1` (configuration not stated): the activity change, negative = inhibition is inactive: 0.958%.

As to `CCOC(=O)CSc1nc2sc(C)c(C)c2c(=O)[nH]1`, the activity change, negative = inhibition was inactive: 0.571%. Take `CSC1=NCCN1C(=O)c1cccc(C(F)(F)F)c1`: the activity change, negative = inhibition was inactive: 0.495%.

As for `Cn1nc(-c2ccccn2)nc2c(=O)n(C)c(=O)nc1-2`, the activity change, negative = inhibition was inactive: 0.336%. For the compound `O=C(Nc1cccnc1)c1ccccc1Oc1ccccc1`, the activity change, negative = inhibition is inactive: 0.526%. As to `Cc1sc2ncnc(NCCCO)c2c1C`, the activity change, negative = inhibition is inactive: 0.736%. Turning to `CC(C)(C)NC(=O)CSc1nc2cccnc2n1C1CCCCC1`, the activity change, negative = inhibition is inactive: 0.349%. `Cc1cccc(C)c1NS(=O)(=O)c1cc2c3c(c1)CC(=O)N3CCC2`: the activity change, negative = inhibition was inactive: -0.579%.

For the compound `CCn1cnc2sc(C(=O)Nc3ccc4c(c3)OCO4)c(C)c2c1=O`, the activity change, negative = inhibition was inactive: 0.157%.

As for `CCOc1ccc(NCc2nnc(SCC(=O)Nc3cc(C)on3)n2-c2ccccc2OC)cc1`, the activity change, negative = inhibition is inactive: 0.492%. On to `Cc1ccc(S(=O)(=O)Nc2ccc3c(c2)C(=O)N([C@H](C)CO)C[C@H](C)[C@@H](CN(C)Cc2ccc(-c4ccccc4)cc2)O3)cc1`, for which the activity change, negative = inhibition was inactive: -0.118%. For `CCCn1c(SCC(=O)NNC(=O)c2ccc(C)cc2)nnc1C(C)C`, the activity change, negative = inhibition was inactive: 1.33%.

`Cc1sc2nc(CN3CCOCC3)nc(NS(=O)(=O)c3cc(Cl)ccc3Cl)c2c1C`: the activity change, negative = inhibition is inactive: -0.0521%. Take `COc1cc2[nH]c(=O)n(CCCCCC(=O)NCCCN3CCCC3=O)c(=O)c2cc1OC`: the activity change, negative = inhibition was inactive: 0.253%.

For the compound `O=C(CSc1nc(-c2ccco2)cc(C(F)(F)F)n1)Nc1ccc(C(=O)N2CCCCC2)cc1`, the activity change, negative = inhibition is inactive: -1.01%. Regarding `CCOC(=O)C1CCN(S(=O)(=O)c2cc3c4c(c2)C(C)C(=O)N4CCC3)CC1` (configuration not stated), the activity change, negative = inhibition is inactive: 0.692%. For `COc1cc(-c2nc(-c3cccc(C)c3)no2)cc(OC)c1OC`, the activity change, negative = inhibition is inactive: -0.243%. Turning to `Cc1noc(C)c1NC(=O)N(C)C[C@H]1Oc2ccc(NC(=O)Cn3cnnn3)cc2C(=O)N([C@H](C)CO)C[C@@H]1C`, the activity change, negative = inhibition is inactive: -0.141%.

`O=C(NCc1ccccc1)c1ccc2c(c1)OCCO2`: the activity change, negative = inhibition was inactive: 1.27%.

For `Cc1cc(C)c(NC(=O)CS(=O)CC(=O)Nc2ccc(F)cc2F)c(C)c1` (configuration not stated), the activity change, negative = inhibition is inactive: -0.338%.

For `Cc1sc2c(c1C)C(=O)/C(=C\Nc1ccccn1)S(=O)(=O)N2C`, the activity change, negative = inhibition was inactive: 0.146%.

As for `COc1cccc(/C=N/Nc2nc3ccccc3[nH]2)c1O`, the activity change, negative = inhibition is inactive: -1%.

For the compound `CNc1nc2c(c(=O)[nH]c(=O)n2C)n1CCCc1ccccc1`, the activity change, negative = inhibition is inactive: 0.246%.

In the case of `CC(C)N(C(=O)[C@H]1CC(CC(=O)NCc2cccc(C(F)(F)F)c2)C(=O)N2CCc3c([nH]c4ccccc34)[C@]12C)C(C)C` (some centres not stated), the activity change, negative = inhibition is inactive: -0.336%.

Turning to `O=c1[nH]cc(N=Cc2cc(Cl)cc(Cl)c2O)c(=O)[nH]1`, the activity change, negative = inhibition is inactive: 0.212%.

Regarding `CC(=O)c1sc(NC(=O)c2ccc(C)cc2)nc1C`, the activity change, negative = inhibition was inactive: 0.775%. On to `CCN(CC)C(CNS(=O)(=O)c1ccc(Cl)cc1)c1ccccc1` (configuration not stated), for which the activity change, negative = inhibition was inactive: -0.496%. Take `O=C(N/N=C/c1nn(-c2ccccc2)cc1-c1ccccc1)c1ccncc1`: the activity change, negative = inhibition is inactive: 0.63%. The figure for `CC(O)CNc1nc2ccccc2n1CC(=O)NC12CC3CC(CC(C3)C1)C2` (configuration not stated) is inactive: 0.442%; for `O=C(NCc1ccccn1)c1ccc(OC2CCN(Cc3cccs3)CC2)cc1` it is inactive: -0.641%; for `CC1SC(=NC(=O)C(C)N2C(=O)c3ccccc3C2=O)NC1=O` (configuration not stated) it is inactive: 0.0806%. Take `COc1ccccc1C(c1nnnn1Cc1ccccc1)N1CCN(C2CCCC2)CC1` (configuration not stated): the activity change, negative = inhibition is inactive: 0.0105%. Consider `CCOc1cccc(SCc2noc(C(=O)NC(C)C)c2C(=O)O)c1`, for which the activity change, negative = inhibition is inactive: -0.232%. `O=C(Nc1ccccc1)N(CCc1nc2ccccc2[nH]1)C1CCCC1`: the activity change, negative = inhibition is inactive: -0.0234%.

Take `O=c1oc2ccccc2c2c1C(c1ccc(Cl)cc1)Nc1ccc3ccccc3c1-2` (configuration not stated): the activity change, negative = inhibition was inactive: -0.0547%.

For `Cc1ccccc1C(=O)Nc1ccccc1C(=O)NC1CC1`, the activity change, negative = inhibition was inactive: -0.181%.

For `C#CCOCCOCCOCCNc1nc(N2CCN(C(=O)[C@H](CCC(=O)O)n3cc([C@@H](N)[C@H](C)CC)nn3)CC2)nc(N2CCN(C(=O)[C@H](CCCCN)n3cc([C@@H](N)CC(N)=O)nn3)CC2)n1`, the activity change, negative = inhibition is inactive: -0.316%.

For the compound `CCN(C[C@H]1N[C@@](C)(C(=O)OC)[C@H]2C(=O)N(Cc3ccccc3)C(=O)[C@@H]12)C(=O)Nc1ccc(Cl)cc1`, the activity change, negative = inhibition was inactive: 0.00139%.

For the compound `Cc1cccc(OCc2nnc(SCC(=O)Nc3cccc(C(=O)N4CCOCC4)c3)o2)c1C`, the activity change, negative = inhibition was inactive: 0.472%. On to `CCCCN(C(=S)NC(=O)c1cc(OC)c(OC)c(OC)c1)c1c(N)n(Cc2ccccc2)c(=O)[nH]c1=O`, for which the activity change, negative = inhibition was inactive: 0.436%.

Consider `COc1ccc(-c2nn3c(-c4ccco4)nnc3s2)cc1OC`, for which the activity change, negative = inhibition was inactive: -1.07%. Take `COc1cc(C#N)c(N=C(SCC#N)N2CCOCC2)cc1OC`: the activity change, negative = inhibition is inactive: -0.819%.

With `CC(C)(C)OC(=O)CNC(=O)c1[nH]cnc1C(=O)N[C@@H](CCCCN)C(=O)OC(C)(C)C`, the activity change, negative = inhibition is inactive: 0.233%. As for `O=C(NCc1ccccn1)c1cn(Cc2ccccc2)nn1`, the figure is inactive: -1.16%; as for `CC(C)(C)C1CCc2[nH]c3ccccc3c(=O)c2C1` (configuration not stated), inactive: -0.261%; as for `O=S(=O)(Nc1ncnc2sc3c(c12)CCC3)c1ccc(Cl)s1`, inactive: 0.634%. As for `COC(=O)c1cc(C#N)c(OC)nc1C`, the figure is inactive: -0.0219%; as for `O=C(NCC(c1ccco1)N1CCN(c2ccc(F)cc2)CC1)OCc1ccccc1` (configuration not stated), inactive: 0.174%; as for `Cc1noc(C)c1NC(=O)N(C)C[C@H]1Oc2ccc(NC(=O)C3CCCCC3)cc2C(=O)N([C@H](C)CO)C[C@@H]1C`, inactive: -0.199%.

As for `Cc1ccc(-n2nnc3c(SCC(=O)NCC4CCCO4)ncnc32)cc1` (configuration not stated), the activity change, negative = inhibition was inactive: -0.442%.

Regarding `COc1ccc(N(Cc2cc3cccc(C)c3[nH]c2=O)S(C)(=O)=O)cc1`, the activity change, negative = inhibition was inactive: -1.29%.

On to `COc1ccc(C(=O)OCCc2sc[n+](CC(=O)c3ccccc3)c2C)cc1`, for which the activity change, negative = inhibition was inactive: 0.664%. With `Cc1noc(C)c1NC(=O)Nc1ccc2c(c1)C(=O)N([C@H](C)CO)C[C@H](C)[C@@H](CN(C)C(=O)NC1CCCCC1)O2`, the activity change, negative = inhibition was inactive: -0.0795%.

As for `Cc1ccc(NC(=O)CSc2cccc[n+]2[O-])c([N+](=O)[O-])c1`, the activity change, negative = inhibition is inactive: 0.529%. As for `c1csc(-c2nc3nc4ccccc4nc3n2Cc2ccc3c(c2)OCO3)c1`, the figure is inactive: 0.811%; as for `Cc1nnsc1C(=O)NNS(=O)(=O)c1ccccc1`, inactive: 0.0683%.

For `CCN(C(=O)c1sc(N)c(C#N)c1C)C1CCCCC1`, the activity change, negative = inhibition is inactive: 0.222%. Take `O=C(Cn1cnc2ccccc2c1=O)Nc1ccc2c(c1)CCC2`: the activity change, negative = inhibition is inactive: -0.000494%. For `CCCCC(=O)NC(NC(=S)N1CCOCC1)C(Cl)(Cl)Cl` (configuration not stated), the activity change, negative = inhibition was inactive: 0.00697%. Turning to `C[C@H](CO)N1C[C@H](C)[C@@H](CN(C)S(=O)(=O)c2cn(C)cn2)Oc2ccc(NC(=O)C3CC3)cc2C1=O`, the activity change, negative = inhibition is inactive: 0.228%. With `N=c1n(CCCOc2ccccc2Cl)c2ccccc2n1CC(N)=O`, the activity change, negative = inhibition is inactive: 0.0205%. Regarding `NCCN1CCN2C(=O)CN(C(=O)c3ccccc3)CC12` (configuration not stated), the activity change, negative = inhibition is inactive: 0.941%.

In the case of `CN(C)c1cccc(C(=O)Nc2cc(C(F)(F)F)ccc2-n2cnc3ccccc32)c1`, the activity change, negative = inhibition is inactive: 0.359%. Consider `CC1CN(C)C(C)CC1NCc1ccc2c(c1)OCO2` (configuration not stated), for which the activity change, negative = inhibition is inactive: -0.093%. `CC(=O)NS(=O)(=O)c1ccc(NC(=O)CSc2ccc(Cl)cc2)cc1`: the activity change, negative = inhibition was inactive: 0.0618%. Consider `O=C(COC(=O)C1(c2ccc(Cl)cc2)CCCC1)NC1CCS(=O)(=O)C1` (configuration not stated), for which the activity change, negative = inhibition is inactive: -0.245%. In the case of `C[C@H](CO)N1C[C@H](C)[C@@H](CN(C)S(=O)(=O)c2ccc(F)cc2)Oc2ccc(NS(=O)(=O)c3cccs3)cc2C1=O`, the activity change, negative = inhibition is inactive: 0.439%.
